Measurements reported in patent US5591825A, “Interleukin 4 signal transducers” (Tularik, Inc., priority 1994, dated 1997).
The exact form of at least one protein or probe is not confirmed. Protein sequences can lack the tags named with them.

Target: T1, IL-4 Stat (STAT6), activated, tyrosine-phosphorylated (Homo sapiens) (UniProt P42226)
T1 sequence: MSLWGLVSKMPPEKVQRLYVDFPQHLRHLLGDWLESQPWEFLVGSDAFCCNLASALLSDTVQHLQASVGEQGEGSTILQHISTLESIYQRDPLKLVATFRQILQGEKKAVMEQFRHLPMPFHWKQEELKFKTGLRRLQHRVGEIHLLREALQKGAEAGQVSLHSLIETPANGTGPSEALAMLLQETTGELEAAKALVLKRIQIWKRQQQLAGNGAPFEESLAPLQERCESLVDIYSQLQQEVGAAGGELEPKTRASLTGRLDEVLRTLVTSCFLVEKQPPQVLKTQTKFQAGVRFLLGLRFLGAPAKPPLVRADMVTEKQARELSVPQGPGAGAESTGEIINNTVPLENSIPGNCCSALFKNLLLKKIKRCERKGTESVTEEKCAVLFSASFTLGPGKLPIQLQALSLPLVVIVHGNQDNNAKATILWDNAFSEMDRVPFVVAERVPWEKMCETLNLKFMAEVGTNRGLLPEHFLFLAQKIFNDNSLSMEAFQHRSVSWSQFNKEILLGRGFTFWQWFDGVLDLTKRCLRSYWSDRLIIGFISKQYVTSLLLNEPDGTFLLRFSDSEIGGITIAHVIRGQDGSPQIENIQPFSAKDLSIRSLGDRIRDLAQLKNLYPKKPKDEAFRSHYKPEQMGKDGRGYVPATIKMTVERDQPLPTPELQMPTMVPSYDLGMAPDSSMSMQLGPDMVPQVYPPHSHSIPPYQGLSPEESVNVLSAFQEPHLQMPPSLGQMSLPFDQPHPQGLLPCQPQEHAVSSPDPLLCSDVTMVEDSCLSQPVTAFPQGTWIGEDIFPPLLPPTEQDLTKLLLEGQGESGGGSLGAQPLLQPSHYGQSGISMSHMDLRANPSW
Test: EMSA
Settings: binding abolished by IL-4R phosphopeptides (Y578, Y606; complete inhibition at 300 uM), not by unphosphorylated peptides or IFN-g receptor phosphopeptide; purified native protein

Sequence: GTATTTCCCAGAAAAGGAAC (double strand) [IL-4 response element upstream of human FcgRI gene]
- binding result: binds
